This is one part of the list. The main result of the screen is listed elsewhere. These columns were measured beside it and carry no call. Compounds called inactive in the main read-out are mostly missing here. Potencies come from curve fits of mixed quality, noted in brackets.
Assay: qHTS Assay for Lipid Storage Modulators in Drosophila S3 Cells;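 for cell number change: cells counted by Cell Tracker Red CMTPX staining in the red channel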
Conditions: BODIPY lipid droplet fluorescence, 18-24 h; for cell number change: measured here: cell count max response, cells fed with added oleic acid
Summary of the method: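 Drosophila S3 cells got compounds at several concentrations plus oleic acid (400 uM solution). Laser-scanning cytometry with 488 nm excitation read lipid droplets at 500-530 nm and cells at 575-640 nm. Percent activity was relative to 20 uM Triacsin C.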

[1] = measured here: cell number channel AC50, cells fed with added oleic acid
[2] = measured here: lipid fluorescence (Fed channel) AC50, cells fed with added oleic acid

| Structure (SMILES) | cell number change [%] | AC50 [1] | AC50 [2] |
| --- | --- | --- | --- |
| Cc1ccc(NC2CCCN(C(=O)c3cccs3)C2)cc1C (configuration not stated) | -39.9 | 29100 nM [falling, single point] | – |
| O=[n+]1cc(-c2ccccc2)n([O-])c2c1CCCCC2 | – | – | 29100 nM [rising, single point] |
| COc1ccc(CS(=O)/C(Cl)=C(/Cl)C(=O)Nc2ccc(OC)nc2)cc1 (configuration not stated) | -65.1 | – | – |
| COc1ccccc1C(=O)Nc1ccc(-c2nnn(CC(=O)N3CCN(C(=O)c4ccco4)CC3)n2)cc1 | -0.398 | – | 92 nM [rising, single point] |
| CC(C)c1ccccc1OCC(=O)Nc1cc(S(=O)(=O)N2CCOCC2)ccc1N1CCCC1 | 0.486 | – | 580 nM [rising, full curve, poor fit] |
| CC(=O)c1c(C)[nH]c(C(=O)OCc2ccccc2)c1C | 15.8 | – | 1640 nM [rising, full curve] |
| O=C(/C=C/c1ccc(O)cc1)OCc1occc(=O)c1O[C@@H]1OC(CO)[C@@H](O)[C@H](O)[C@@H]1O (some centres not stated) | 0.208 | – | 291 nM [rising, full curve, poor fit] |
| CCOC(=O)C(C(=O)N(C)Cc1ccccc1)C1CCCCC1 (configuration not stated) | -17.9 | – | 4110 nM [falling, single point] |
| Cc1cc(C(=O)NCC(=O)Nc2c(C)cccc2C)c2ccccc2n1 | 18.4 | – | 82 nM [rising, full curve] |
| CCNc1nc(Oc2ccc(C(=O)OCC)cc2)nc(SC)n1 | -9.16 | – | 3660 nM [rising, single point] |
| CC(C)CC(COCc1ccc(F)cc1)N1CCN(C(=O)c2cccc(C(F)(F)F)c2)CCC1=O (configuration not stated) | 8.65 | – | 1840 nM [rising, full curve, poor fit] |
| O=C(CCN1c2ccccc2Sc2ccccc21)OCC(=O)N1CCN(C(=O)c2ccco2)CC1 | -14.8 | – | 32600 nM [falling, single point] |
| Cn1c(SCC(=O)NNC(=O)c2ccccc2)nnc1C1CC1 | 26.2 | – | – |
| Cc1ccc(S(=O)(=O)N2CCSC2)cc1C | -30.7 | 1840 nM [falling, full curve, poor fit] | 2310 nM [falling, full curve] |
| O=C(CSc1nccn1-c1ccccc1)NCc1ccc2c(c1)OCO2 | – | 920 nM [rising, partial curve] | 1300 nM [rising, full curve] |
| COc1ccc(/C=N/NC(=O)Cn2c(Cc3ccc(OC)c(OC)c3)nc3ccccc32)cc1 | 9.79 | 6510 nM [falling, single point] | – |
| COc1ccc(N(C(=O)CNC(=O)c2cccs2)C(C(=O)NC2CCCC2)c2ccncc2)cc1 (configuration not stated) | 5.13 | – | 18400 nM [rising, single point] |

A draw from above in order of molar mass, descending.

| Structure (SMILES) | cell number change [%] | AC50 [1] | AC50 [2] |
| --- | --- | --- | --- |
| COc1ccc(N(C(=O)CNC(=O)c2cccs2)C(C(=O)NC2CCCC2)c2ccncc2)cc1 (configuration not stated) | 5.13 | – | 18400 nM [rising, single point] |
| COc1ccc(CS(=O)/C(Cl)=C(/Cl)C(=O)Nc2ccc(OC)nc2)cc1 (configuration not stated) | -65.1 | – | – |
| O=C(CSc1nccn1-c1ccccc1)NCc1ccc2c(c1)OCO2 | – | 920 nM [rising, partial curve] | 1300 nM [rising, full curve] |
